Data on 1 molecule can be found in PMC4405695.

Sequences of proteins named here, by UniProt entry; tags and fusion partners are left off. A change or cut given only in a name is not applied to a line headed by its entry.
UniProt P20339: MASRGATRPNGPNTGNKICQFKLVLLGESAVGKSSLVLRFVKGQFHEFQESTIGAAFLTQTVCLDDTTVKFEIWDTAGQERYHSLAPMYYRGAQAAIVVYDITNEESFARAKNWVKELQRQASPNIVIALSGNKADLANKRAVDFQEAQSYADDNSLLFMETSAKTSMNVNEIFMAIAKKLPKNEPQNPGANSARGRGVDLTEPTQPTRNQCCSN
UniProt P20340: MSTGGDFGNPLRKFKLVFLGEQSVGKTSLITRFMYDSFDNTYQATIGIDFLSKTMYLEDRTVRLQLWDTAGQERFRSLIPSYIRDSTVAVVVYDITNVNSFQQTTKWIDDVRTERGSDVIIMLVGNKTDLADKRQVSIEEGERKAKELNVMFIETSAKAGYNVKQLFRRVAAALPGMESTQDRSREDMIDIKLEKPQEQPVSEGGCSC

No constants are given. Whether binding was seen depends on the method and setting. Binding seen in cells or lysates may run through a third protein. Some results given as binding are weak or reduced against the parent protein; the word gives no strength. Where a sequence is shown, tags or fusion partners need not be part of it.

Assay in all cases: pull-down; in vitro translated myc-KIF1C constructs (optimally 11.25 nM) with GTPγS-loaded GST-Rabs (0.2-5 μM), Buffer A plus 1 mM DTT, 1 hr 25°C, glutathione-Sepharose, washes with 400 mM NaCl; anti-myc immunoblot; only the target purified
Assay [1] deals with GST-Rab5A Q79L (UniProt P20339).
Assay [2] deals with GST-Rab6A Q72L (UniProt P20340).
For assay [3], the target named is T1, GST-Rab9A (UniProt P51151).
T1 sequence: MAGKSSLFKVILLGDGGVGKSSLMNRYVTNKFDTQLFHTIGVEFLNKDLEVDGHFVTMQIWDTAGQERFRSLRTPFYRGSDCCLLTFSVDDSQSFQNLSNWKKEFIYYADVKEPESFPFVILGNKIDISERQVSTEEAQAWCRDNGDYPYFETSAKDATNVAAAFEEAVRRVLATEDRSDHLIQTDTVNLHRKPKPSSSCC

B1: myc-KIF1C-350 (domain or fragment, UniProt O43896 1-350)
chain: MAGASVKVAVRVRPFNARETSQDAKCVVSMQGNTTSIINPKQSKDAPKSFTFDYSYWSHTSTEDPQFASQQQVYRDIGEEMLLHAFEGYNVCIFAYGQTGAGKSYTMMGRQEPGQQGIVPQLCEDLFSRVSENQSAQLSYSVEVSYMEIYCERVRDLLNPKSRGSLRVREHPILGPYVQDLSKLAVTSYADIADLMDCGNKARTVAATNMNETSSRSHAVFTIVFTQRCHDQLTGLDSEKVSKISLVDLAGSERADSSGARGMRLKEGANINKSLTTLGKVISALADMQSKKRKSDFIPYRDSVLTWLLKENLGGNSRTAMIAALSPADINYEETLSTLRYADRTKQIRC
As for B1, the values for the binding result in assay [1], in assay [2] and in assay [3] were “no binding (tested: 5 μM)”, “binds” and “no binding (tested: 5 μM)”, respectively.
